In the supplement of paper PMC10849652:
This is one part of the list.

The chains behind the UniProt entries cited, without tags or fusion partners. Where a name states a change or a piece, a line headed by the entry shows the natural chain unless it says otherwise.
UniProt Q5BKX5: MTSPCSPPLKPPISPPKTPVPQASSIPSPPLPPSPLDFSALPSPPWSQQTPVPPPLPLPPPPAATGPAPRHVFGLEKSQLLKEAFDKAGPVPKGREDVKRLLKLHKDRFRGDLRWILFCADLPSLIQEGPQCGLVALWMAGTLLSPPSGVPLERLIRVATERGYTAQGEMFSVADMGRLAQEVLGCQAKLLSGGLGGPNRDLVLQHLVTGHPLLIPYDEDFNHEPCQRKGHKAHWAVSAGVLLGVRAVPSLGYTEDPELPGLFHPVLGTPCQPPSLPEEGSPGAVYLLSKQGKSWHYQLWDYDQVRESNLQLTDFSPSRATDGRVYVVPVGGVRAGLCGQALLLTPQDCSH
UniProt Q9HAS0: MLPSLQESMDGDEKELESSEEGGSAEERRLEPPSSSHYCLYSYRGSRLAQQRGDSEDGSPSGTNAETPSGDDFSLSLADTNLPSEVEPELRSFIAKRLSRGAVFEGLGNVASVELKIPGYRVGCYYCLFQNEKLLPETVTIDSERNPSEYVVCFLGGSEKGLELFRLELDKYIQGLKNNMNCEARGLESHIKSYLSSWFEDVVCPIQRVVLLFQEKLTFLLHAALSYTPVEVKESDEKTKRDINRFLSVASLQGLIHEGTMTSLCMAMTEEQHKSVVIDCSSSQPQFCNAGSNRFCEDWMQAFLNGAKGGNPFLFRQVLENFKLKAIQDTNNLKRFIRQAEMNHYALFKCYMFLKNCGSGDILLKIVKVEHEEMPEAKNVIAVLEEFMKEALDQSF
UniProt Q06187: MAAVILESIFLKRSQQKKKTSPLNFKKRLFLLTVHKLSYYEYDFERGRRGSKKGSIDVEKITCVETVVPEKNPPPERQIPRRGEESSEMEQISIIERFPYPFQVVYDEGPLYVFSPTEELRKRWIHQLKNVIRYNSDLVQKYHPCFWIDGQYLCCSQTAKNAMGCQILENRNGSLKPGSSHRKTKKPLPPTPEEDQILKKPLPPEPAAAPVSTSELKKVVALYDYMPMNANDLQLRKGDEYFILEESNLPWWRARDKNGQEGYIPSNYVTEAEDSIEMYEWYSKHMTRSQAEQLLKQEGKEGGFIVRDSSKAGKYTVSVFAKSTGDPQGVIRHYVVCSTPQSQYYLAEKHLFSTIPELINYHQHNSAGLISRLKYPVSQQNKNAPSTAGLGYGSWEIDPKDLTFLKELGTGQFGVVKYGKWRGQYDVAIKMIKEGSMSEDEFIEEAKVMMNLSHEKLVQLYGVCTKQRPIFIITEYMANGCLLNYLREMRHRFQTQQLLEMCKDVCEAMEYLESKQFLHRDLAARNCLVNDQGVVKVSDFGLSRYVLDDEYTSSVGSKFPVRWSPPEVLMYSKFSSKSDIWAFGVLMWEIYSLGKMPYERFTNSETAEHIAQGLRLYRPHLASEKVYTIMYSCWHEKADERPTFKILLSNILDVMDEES
UniProt Q9Y297: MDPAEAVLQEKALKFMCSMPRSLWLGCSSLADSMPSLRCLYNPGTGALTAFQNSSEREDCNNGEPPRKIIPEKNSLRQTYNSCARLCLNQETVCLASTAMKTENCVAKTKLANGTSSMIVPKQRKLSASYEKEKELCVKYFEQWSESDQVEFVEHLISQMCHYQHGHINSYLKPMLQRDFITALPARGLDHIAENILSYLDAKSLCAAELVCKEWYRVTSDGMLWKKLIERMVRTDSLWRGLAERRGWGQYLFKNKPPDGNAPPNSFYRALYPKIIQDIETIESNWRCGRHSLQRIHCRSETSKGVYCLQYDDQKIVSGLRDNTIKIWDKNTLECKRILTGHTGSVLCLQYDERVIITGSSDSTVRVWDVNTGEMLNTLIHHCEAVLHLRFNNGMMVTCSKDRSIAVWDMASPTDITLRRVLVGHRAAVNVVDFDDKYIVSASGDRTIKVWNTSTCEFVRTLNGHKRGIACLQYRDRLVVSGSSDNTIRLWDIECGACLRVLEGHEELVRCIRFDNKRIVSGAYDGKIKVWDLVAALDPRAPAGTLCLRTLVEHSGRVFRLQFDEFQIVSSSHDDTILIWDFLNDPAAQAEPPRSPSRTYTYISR
UniProt Q9H3J6: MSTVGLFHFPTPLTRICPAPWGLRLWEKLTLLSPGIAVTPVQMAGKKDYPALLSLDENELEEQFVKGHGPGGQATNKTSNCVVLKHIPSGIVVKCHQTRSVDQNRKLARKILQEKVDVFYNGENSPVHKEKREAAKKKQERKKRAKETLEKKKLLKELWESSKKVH
UniProt Q0VDD7: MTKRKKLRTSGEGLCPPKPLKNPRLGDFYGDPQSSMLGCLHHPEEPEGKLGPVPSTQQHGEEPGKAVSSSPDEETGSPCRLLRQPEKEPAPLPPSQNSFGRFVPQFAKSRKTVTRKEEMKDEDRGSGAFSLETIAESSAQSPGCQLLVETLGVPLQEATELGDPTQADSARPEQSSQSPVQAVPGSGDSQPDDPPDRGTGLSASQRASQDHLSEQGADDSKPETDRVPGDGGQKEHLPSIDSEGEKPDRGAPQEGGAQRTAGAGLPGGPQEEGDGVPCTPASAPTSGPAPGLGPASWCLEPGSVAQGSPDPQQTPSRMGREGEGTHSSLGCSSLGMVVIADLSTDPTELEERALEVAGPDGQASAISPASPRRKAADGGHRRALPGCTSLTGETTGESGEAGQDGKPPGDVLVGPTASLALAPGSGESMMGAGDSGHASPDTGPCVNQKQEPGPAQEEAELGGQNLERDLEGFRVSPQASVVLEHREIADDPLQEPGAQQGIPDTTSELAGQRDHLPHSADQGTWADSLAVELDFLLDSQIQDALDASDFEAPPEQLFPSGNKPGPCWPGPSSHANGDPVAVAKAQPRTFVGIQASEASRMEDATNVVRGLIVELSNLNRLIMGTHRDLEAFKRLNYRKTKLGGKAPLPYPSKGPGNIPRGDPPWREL
UniProt Q9H9S4: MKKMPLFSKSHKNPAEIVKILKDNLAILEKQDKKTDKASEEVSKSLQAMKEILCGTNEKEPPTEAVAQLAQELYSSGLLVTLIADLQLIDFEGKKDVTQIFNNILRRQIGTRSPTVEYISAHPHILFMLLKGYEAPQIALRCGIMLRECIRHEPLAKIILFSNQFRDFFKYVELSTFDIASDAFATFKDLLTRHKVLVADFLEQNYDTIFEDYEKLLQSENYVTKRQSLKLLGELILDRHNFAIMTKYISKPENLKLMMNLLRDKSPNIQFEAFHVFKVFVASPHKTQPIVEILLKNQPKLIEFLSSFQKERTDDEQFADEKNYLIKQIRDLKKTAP
UniProt Q9Y2V0: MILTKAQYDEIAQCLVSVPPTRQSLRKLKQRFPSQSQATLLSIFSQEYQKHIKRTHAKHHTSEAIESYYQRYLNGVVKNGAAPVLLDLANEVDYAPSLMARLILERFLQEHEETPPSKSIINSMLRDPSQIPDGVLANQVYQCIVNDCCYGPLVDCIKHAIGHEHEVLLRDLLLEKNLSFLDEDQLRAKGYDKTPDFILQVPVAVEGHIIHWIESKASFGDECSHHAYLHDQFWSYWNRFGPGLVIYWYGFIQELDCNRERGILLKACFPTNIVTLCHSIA
UniProt Q5SQH8: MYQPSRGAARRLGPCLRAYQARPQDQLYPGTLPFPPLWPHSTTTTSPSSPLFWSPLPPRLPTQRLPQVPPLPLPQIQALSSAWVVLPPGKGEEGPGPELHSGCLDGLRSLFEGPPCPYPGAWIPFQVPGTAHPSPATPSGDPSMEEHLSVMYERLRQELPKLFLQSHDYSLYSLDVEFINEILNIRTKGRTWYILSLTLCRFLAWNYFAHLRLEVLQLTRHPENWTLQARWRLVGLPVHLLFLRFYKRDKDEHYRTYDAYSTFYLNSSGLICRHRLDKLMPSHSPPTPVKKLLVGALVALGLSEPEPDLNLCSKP
UniProt Q10589, whole entry, looked up: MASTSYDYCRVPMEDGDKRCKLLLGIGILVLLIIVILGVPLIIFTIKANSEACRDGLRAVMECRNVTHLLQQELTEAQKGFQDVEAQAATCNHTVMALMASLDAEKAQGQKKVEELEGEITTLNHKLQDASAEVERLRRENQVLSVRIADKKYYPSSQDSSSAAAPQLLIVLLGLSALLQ
UniProt Q9BRD0: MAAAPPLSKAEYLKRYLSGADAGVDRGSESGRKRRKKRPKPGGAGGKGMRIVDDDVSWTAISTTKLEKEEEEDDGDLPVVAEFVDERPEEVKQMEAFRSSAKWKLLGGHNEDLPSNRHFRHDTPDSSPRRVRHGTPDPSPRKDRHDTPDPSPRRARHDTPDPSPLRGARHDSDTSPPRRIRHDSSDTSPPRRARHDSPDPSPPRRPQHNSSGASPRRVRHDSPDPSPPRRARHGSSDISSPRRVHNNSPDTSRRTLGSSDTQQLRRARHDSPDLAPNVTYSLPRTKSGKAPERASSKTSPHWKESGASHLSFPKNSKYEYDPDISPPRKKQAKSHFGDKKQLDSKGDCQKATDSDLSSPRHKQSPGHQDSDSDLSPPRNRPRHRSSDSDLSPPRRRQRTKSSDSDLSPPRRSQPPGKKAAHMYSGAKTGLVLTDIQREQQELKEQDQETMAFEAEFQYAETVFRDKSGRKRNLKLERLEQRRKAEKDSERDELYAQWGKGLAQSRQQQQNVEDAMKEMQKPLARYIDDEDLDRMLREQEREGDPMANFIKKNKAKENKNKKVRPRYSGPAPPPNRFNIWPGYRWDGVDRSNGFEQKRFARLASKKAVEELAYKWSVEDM
UniProt P10643, whole entry, looked up: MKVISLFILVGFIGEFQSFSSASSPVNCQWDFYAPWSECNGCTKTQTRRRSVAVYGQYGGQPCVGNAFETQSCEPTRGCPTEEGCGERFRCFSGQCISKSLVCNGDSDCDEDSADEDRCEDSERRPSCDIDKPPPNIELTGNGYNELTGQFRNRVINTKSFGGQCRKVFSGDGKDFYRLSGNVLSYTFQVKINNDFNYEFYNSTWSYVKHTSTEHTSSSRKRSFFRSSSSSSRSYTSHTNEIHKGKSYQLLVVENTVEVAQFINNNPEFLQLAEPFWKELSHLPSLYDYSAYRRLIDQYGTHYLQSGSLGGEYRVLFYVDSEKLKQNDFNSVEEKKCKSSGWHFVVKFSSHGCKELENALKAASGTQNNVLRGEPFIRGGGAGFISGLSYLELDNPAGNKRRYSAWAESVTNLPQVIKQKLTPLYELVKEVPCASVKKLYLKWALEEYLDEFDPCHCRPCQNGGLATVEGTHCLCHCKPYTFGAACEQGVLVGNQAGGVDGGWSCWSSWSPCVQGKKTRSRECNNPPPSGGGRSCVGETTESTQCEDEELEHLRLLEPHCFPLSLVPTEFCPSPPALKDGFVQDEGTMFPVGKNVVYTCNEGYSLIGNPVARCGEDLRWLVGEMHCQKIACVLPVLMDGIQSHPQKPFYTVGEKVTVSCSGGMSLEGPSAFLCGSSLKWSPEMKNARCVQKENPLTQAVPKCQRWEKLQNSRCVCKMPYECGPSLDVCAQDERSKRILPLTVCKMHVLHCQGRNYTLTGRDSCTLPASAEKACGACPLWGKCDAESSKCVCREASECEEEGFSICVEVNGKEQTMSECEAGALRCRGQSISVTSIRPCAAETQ
UniProt Q3KRA6: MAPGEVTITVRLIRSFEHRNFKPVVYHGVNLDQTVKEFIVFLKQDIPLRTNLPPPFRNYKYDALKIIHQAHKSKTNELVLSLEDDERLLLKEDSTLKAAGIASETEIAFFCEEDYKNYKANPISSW
UniProt O43709: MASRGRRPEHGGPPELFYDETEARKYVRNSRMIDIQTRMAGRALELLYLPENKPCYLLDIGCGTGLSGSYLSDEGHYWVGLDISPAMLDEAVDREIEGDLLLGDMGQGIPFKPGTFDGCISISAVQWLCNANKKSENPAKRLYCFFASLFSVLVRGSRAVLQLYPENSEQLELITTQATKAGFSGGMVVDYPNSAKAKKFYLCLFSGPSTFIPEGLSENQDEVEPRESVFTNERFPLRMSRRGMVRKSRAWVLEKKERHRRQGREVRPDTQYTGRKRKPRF
UniProt Q9Y2G2: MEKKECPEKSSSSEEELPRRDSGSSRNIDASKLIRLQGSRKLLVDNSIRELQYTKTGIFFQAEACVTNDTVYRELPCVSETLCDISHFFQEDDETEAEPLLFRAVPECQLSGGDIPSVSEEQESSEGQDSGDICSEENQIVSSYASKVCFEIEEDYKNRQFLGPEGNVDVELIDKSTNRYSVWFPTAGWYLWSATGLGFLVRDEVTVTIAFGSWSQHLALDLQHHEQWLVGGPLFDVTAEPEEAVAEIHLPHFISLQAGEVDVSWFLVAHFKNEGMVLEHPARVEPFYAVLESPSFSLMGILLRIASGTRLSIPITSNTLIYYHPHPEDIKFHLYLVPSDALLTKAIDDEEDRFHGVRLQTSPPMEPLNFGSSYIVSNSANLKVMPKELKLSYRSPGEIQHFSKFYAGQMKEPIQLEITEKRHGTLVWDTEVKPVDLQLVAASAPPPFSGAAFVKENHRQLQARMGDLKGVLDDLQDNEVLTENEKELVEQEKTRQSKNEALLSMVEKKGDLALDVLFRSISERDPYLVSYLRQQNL
UniProt Q9H7E9: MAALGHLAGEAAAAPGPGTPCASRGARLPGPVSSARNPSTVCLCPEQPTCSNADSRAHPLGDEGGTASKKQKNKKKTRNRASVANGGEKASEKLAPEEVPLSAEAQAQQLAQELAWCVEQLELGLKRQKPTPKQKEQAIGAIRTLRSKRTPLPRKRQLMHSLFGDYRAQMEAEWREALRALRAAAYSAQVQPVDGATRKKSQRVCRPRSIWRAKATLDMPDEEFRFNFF

Key:
Experiment in all cases: log2 fold change, soluble protein after heating vs DMSO (PISA); higher = thermal stabilisation; K562 cells, 10 uM, 30 min; active = over 0.2 and 3.5 SD of the protein, either way, in both replicates (recomputed)
erlotinib = compound: C#Cc1cccc(Nc2ncnc3cc(OCCOC)c(OCCOC)cc23)c1 [erlotinib]
Summary of the method: (§1)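 Soluble protein was quantified by TMTpro 16plex LC-MS/MS after channel sums were equalised. It was obtained as the supernatant after 21,000xg for 90 min from pooled aliquots of K562 cells (2×10^6 cells/mL, 10 μM compound, 30 min) heated for 3 min across 48°C-58°C and extracted in PBS with 0.5% NP-40 at 4°C. Thermal stability values are relative to control samples and come from duplicates. They are given as log2 fold changes.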

[1] = compound: C/C(=N\NC(=O)C1=CC(=CC=C1)S(=O)(=O)N2CCOCC2)/C3=C(C=CC(=C3)Cl)O
Summary of the method: as §1

[2] = compound: C1=CC(=C(C=C1Cl)C2=NC3=NC=CN=C3C(=N2)NC4=CC=NC=C4)F
Summary of the method: as §1

[3] = compound: C1=CC(=CC=C1C2=NC3=C(N2)C=C(C=C3)C(=O)N)OC4=CC=C(C=C4)Cl
Summary of the method: as §1

[4] = compound: C1=CC2=C(C=CC(=C2)/C=C\3/C(=O)NC(=NCC4=CC=CS4)S3)N=C1
Summary of the method: as §1

[5] = compound: C1=CC2=NC=CN=C2C=C1/C=C/3\C(=O)NC(=O)S3
Summary of the method: as §1

[6] = compound: C1=CC=C(C=C1)C2=NC(=C(N2)C3=CC=NC=C3)C4=CC(=C(C=C4)Cl)O
Summary of the method: as §1

[7] = compound: C1=CC=C2C(=C1)C3=NNC4=CC=CC(=C43)C2=O
Summary of the method: as §1

[8] = compound: C1CCN(C1)C(=O)NC2=CC=CC(=C2)NC3=NC=C(C(=N3)NCCC4=CN=CN4)Br
Summary of the method: as §1

[9] = compound: C1CN(CCC1(CC2=CC=C(C=C2)Cl)N)C3=NC=NC4=C3C=CN4
Summary of the method: as §1

Measured: log2 fold change

C1orf50 (UniProt Q9BV19)
inactive: erlotinib 0.12 | [1] -0.048 | [2] 0.177 | [3] 0.244 | [4] 0.093 | [5] 0.028 | [6] 0.015 | [7] 0.003 | [8] 0.041 | [9] -0.09

C19orf54 (UniProt Q5BKX5)
active: [9] -0.543
inactive: erlotinib -0.094 | [1] -0.054 | [2] 0.024 | [3] 0.008 | [4] -0.005 | [6] -0.024 | [7] 0.026 | [8] -0.027

C17orf75 (UniProt Q9HAS0)
inactive: erlotinib -0.024 | [1] 0.053 | [2] 0.034 | [3] 0.004 | [4] 0.107 | [5] 0 | [6] -0.005 | [7] 0.049 | [8] -0.128 | [9] -0.005

BTK isoform 2 (UniProt Q06187)
inactive: erlotinib 0.038 | [1] -0.106 | [2] -0.387 | [3] -0.109 | [4] 0.01 | [6] -0.065 | [7] 0.032 | [8] -0.012 | [9] -0.03

BTBD6 (UniProt Q96KE9)
inactive: erlotinib 0.407 | [2] 0.165 | [3] -0.188 | [4] 0.016 | [5] -0.057 | [6] 0.3 | [7] 0.081 | [8] -0.19 | [9] 0.185
active: [1] -0.706

BTRC (UniProt Q9Y297)
inactive: erlotinib -0.022 | [1] -0.036 | [2] -0.06 | [3] 0.153 | [4] 0.042 | [5] -0.156 | [7] -0.081 | [8] 0.008 | [9] 0.122

C3orf33 (UniProt Q6P1S2)
inactive: erlotinib -0.019 | [1] -0.07 | [2] -0.188 | [3] 0.145 | [4] 0.107 | [5] 0 | [6] -0.039 | [7] -0.009 | [8] 0.007 | [9] 0

C12orf65 (UniProt Q9H3J6)
inactive: erlotinib -0.065 | [1] -0.168 | [3] 0.051 | [4] -0.159 | [5] -0.069 | [6] -0.004 | [7] 0.003

CAPN15 (UniProt O75808)
inactive: erlotinib 0.109 | [2] 0.186 | [3] 0.001 | [5] 0.167

C6orf62 (UniProt Q9GZU0)
inactive: erlotinib 0.097 | [2] -0.057 | [3] 0.053

CAD (UniProt P27708)
inactive: erlotinib -0.083 | [1] 0.042 | [2] -0.014 | [3] -0.003 | [4] 0.125 | [5] -0.011 | [6] 0.057 | [7] -0.063 | [8] 0.013 | [9] 0.046

C11orf98 (UniProt E9PRG8)
inactive: erlotinib -0.158 | [1] -0.14 | [2] -0.427 | [3] 0.039 | [4] -0.04 | [5] 0.012 | [6] -0.062 | [7] 0.023 | [8] 0.073 | [9] -0.046

C19orf57 (UniProt Q0VDD7)
inactive: erlotinib -0.144 | [1] -0.046 | [3] 0.123 | [4] 0.181 | [5] 0.151 | [6] 0.006 | [7] -0.028

CARD9 (UniProt Q9H257)
inactive: erlotinib -0.173 | [1] 0.211 | [3] 0.056 | [4] -0.184 | [6] 0.129 | [7] -0.058

CAB39L (UniProt Q9H9S4)
inactive: erlotinib -0.026 | [1] -0.001 | [2] -0.088 | [3] 0.065 | [4] 0.042 | [5] 0.015 | [6] 0.007 | [7] -0.117 | [8] -0.068 | [9] -0.306

C15orf41 (UniProt Q9Y2V0)
inactive: erlotinib 0.02 | [1] 0.017 | [2] 0.002 | [3] -0.033 | [4] -0.018 | [6] 0.001 | [7] -0.098 | [8] 0.115 | [9] 0.075

C6orf136 isoform 4 (UniProt Q5SQH8)
inactive: erlotinib 0.08 | [1] 0.117 | [3] -0.078 | [4] 0.068 | [5] -0.613 | [6] -0.02 | [7] -0.049 | [8] -0.041 | [9] 0.151

BST2 (UniProt Q10589)
inactive: erlotinib -0.018 | [1] 0.026 | [2] -0.046 | [3] 0 | [4] 0.009 | [5] 0.024 | [6] -0.062 | [7] -0.013 | [8] 0.066 | [9] -0.063

BUD13 (UniProt Q9BRD0)
inactive: erlotinib 0.001 | [1] -0.181 | [2] -0.423 | [3] -0.083 | [4] 0.06 | [6] -0.143 | [7] -0.011 | [8] 0.033 | [9] 0.036

C7 (UniProt P10643)
inactive: erlotinib -0.166 | [1] -0.068 | [2] -0.091 | [3] 0.108 | [4] 0.367 | [5] -0.08 | [7] -0.407 | [8] -0.091 | [9] 0.205

CANX isoform 2 (UniProt P27824)
inactive: erlotinib -0.068 | [1] -0.115 | [2] -0.027 | [3] -0.016 | [4] -0.089 | [5] -0.005 | [6] -0.03 | [7] 0.021 | [8] 0.015 | [9] -0.018

C17orf99 (UniProt Q6UX52)
inactive: erlotinib -0.114 | [1] -0.565 | [2] 0.12 | [3] -0.336 | [4] -0.025 | [7] -0.007

C4BPA (UniProt P04003)
inactive: erlotinib 0.11 | [1] -0.172 | [2] -0.062 | [3] -0.261 | [4] 0.162 | [5] -0.117 | [7] 0 | [8] -0.246 | [9] 0.048

CAPZA2 (UniProt P47755)
inactive: erlotinib -0.056 | [1] 0.049 | [2] 0.041 | [3] 0.02 | [4] -0.013 | [5] 0.015 | [6] 0.03 | [7] -0.007 | [8] 0.031 | [9] 0.042

C2orf76 (UniProt Q3KRA6)
inactive: erlotinib 0.06 | [1] -0.13 | [3] -0.117 | [4] 0.316 | [5] -0.123 | [7] 0.242 | [8] -0.122 | [9] 0.059

BUB3 (UniProt O43684)
inactive: erlotinib 0.028 | [1] 0.021 | [2] -0.019 | [3] 0.023 | [4] 0.039 | [5] 0.006 | [6] -0.051 | [7] -0.005 | [8] -0.005 | [9] 0

BUD23 isoform 3 (UniProt O43709)
inactive: erlotinib 0.087 | [1] -0.085 | [2] -0.198 | [3] 0.022 | [4] 0.146 | [5] 0.027 | [6] -0.039 | [7] 0.027 | [8] 0.079 | [9] -0.023

CARD8 isoform 5 (UniProt Q9Y2G2)
inactive: erlotinib 0.078 | [1] 0.016 | [2] 0.08 | [3] 0.077 | [4] 0.037 | [5] -0.145 | [6] -0.077 | [7] 0 | [8] -0.018 | [9] 0.04

C6orf47 (UniProt O95873)
inactive: erlotinib -0.01 | [1] -0.025 | [2] 0.044 | [3] 0.038 | [4] 0.04 | [5] 0.067 | [6] -0.029 | [7] -0.008 | [8] 0.022 | [9] 0.058

BTBD1 (UniProt Q9H0C5)
inactive: [6] -0.135

CABIN1 (UniProt Q9Y6J0)
inactive: erlotinib -0.006 | [3] -0.16

C8orf33 isoform 2 (UniProt Q9H7E9)
inactive: [1] -0.185 | [2] -0.488 | [4] -0.408 | [5] -0.112 | [6] 0.252 | [7] -0.037 | [8] 0.079 | [9] -0.191
